Measured values as given in publication PMC12670160, “A drug-repurposing screen of FDA- and EMA-approved drugs identifies two NF-κB inhibitors active against eumycetoma” (Journal of Antimicrobial Chemotherapy, 2025).
Structures can show the parent of a compound that is named as a salt. Screen size: about 5,300 compounds; about 130 (2.5%) showed an effect of 50% or more. The list shows a part of the results.

Test system: M. mycetomatis strain mm55
Details: primary screen, metabolic activity vs growth control; 96 h, 2 µM; inhibitor

| SMILES | % viability [%] |
| --- | --- |
| COc1ccc(/C=C/C(=O)Nc2ccccc2C(=O)O)cc1OC [ONC0003901, tranilast] | 58.84 |
| CCN(CC)CCNC(=O)c1c(C)[nH]c(/C=C2\C(=O)Nc3ccc(F)cc32)c1C [ONC0002430, sunitinib] | 105.9 |
| COc1ccc(-n2nc(C(F)(F)F)cc2-c2ccc(Cl)cc2)cc1 [ONC0001467, sc560] | 59.03 |
| COc1ccc(C2=NC(c3ccc(Cl)cc3)C(c3ccc(Cl)cc3)N2C(=O)N2CCNC(=O)C2)c(OC(C)C)c1 (stereo not shown) [ONC0004648, nutlin3] | 96.53 |
| Nc1ccncc1 [ONC0000653, fampridine] | 146.4 |
| N=C(N)NCCSSCCNC(=N)N [ONC0004097, guanidinoethyldisulfidebicarbonate] | 107.9 |
| COc1cc(C[C@@H](CO)[C@H](CO)Cc2ccc(O)c(OC)c2)ccc1O [ONC0002154, secoisolariciresinol] | 77.22 |
| CN(C)C(=O)C(CCN1CCC(O)(c2ccc(Cl)cc2)CC1)(c1ccccc1)c1ccccc1 [ONC0005328, loperamide hydrochloride] | 73.55 |
| O=C(CN1CCN(C(=O)c2ccco2)CC1)Nc1cc(C(F)(F)F)ccc1Cl [ONC0003072, ml348] | 145.2 |
| CC(=O)C1C(=O)C=C(C)OC1=O (stereo not shown) [ONC0000295, dehydroacetic acid] | 80.95 |
| CC(=O)O[C@H]1CC[C@@]2(C)C(=CC[C@@H]3[C@@H]2CC[C@]2(C)C(c4cccnc4)=CC[C@@H]32)C1 [ONC0004597, abiraterone acetate] | 81.56 |
| COc1ccccc1N1CCN(CCN2C(=O)c3ccccc3C(C)(C)C2=O)CC1 [ONC0002595, arc239] | 81.65 |
| O=C1CCC[C@@H]2[C@@H]3CCC[N+]4([O-])CCC[C@H](CN12)[C@@H]34 (stereo partly shown) [ONC0005063, oxymatrine matrine noxide] | 117.3 |
| CC[C@H](C)[C@H](NC(=O)[C@H](Cc1ccc(O)cc1)NC(=O)[C@@H](NC(=O)[C@H](CCCNC(=N)N)NC(=O)[C@@H](N)CC(=O)O)C(C)C)C(=O)N[C@@H](Cc1cnc[nH]1)C(=O)N1CCC[C@H]1C(=O)N[C@@H](Cc1ccccc1)C(=O)O [ONC0002134, angiotensin ii human] | 79.83 |
| Cc1cccc(C)c1NC(=O)CC12CCCN1CCC2 [ONC0003275, pilsicainide hydrochloride] | 96.95 |
| Cc1ccccc1C(=O)Nc1ccc(C(=O)N2CCCC(O)c3cc(Cl)ccc32)c(C)c1 (stereo not shown) [ONC0005015, tolvaptan opc41061] | 93.4 |
| CC1=C(C(=O)O)N2C(=O)[C@@H](NC(=O)[C@H](N)C3=CCC=CC3)C2SC1 (stereo partly shown) [ONC0000708, cephradine] | 86.49 |
| CC[N+](CC)(CC)CCOc1ccc(/C=C/c2ccccc2)cc1 [ONC0002497, mg624] | 77 |
| O=C(Nc1cccc(C(F)(F)F)c1)Nc1cc(S(=O)(=O)NC2CC2)ccc1-c1ccsc1 [ONC0005038, agi6780] | 85.66 |
| Cc1noc2c1-c1ccccc1C(c1ccc(Cl)cc1)=N[C@H]2CC(N)=O [ONC0001113, cpi0610] | 62.21 |

As entered above.
COc1cc(C[C@@H](CO)[C@H](CO)Cc2ccc(O)c(OC)c2)ccc1O [ONC0002154, secoisolariciresinol] – % viability [%]: 77.22
CN(C)C(=O)C(CCN1CCC(O)(c2ccc(Cl)cc2)CC1)(c1ccccc1)c1ccccc1 [ONC0005328, loperamide hydrochloride] – % viability [%]: 73.55
COc1ccc(C2=NC(c3ccc(Cl)cc3)C(c3ccc(Cl)cc3)N2C(=O)N2CCNC(=O)C2)c(OC(C)C)c1 (stereo not shown) [ONC0004648, nutlin3] – % viability [%]: 96.53

Further compounds

| SMILES | % viability [%] |
| --- | --- |
| O=C(Nc1cc(Oc2cc(F)c(NC(=O)C3(C(=O)Nc4ccc(F)cc4)CC3)cc2F)ccn1)C1CC1 [ONC0000826, altiratinib] | 71.46 |
| COC(=O)[C@H](Cc1ccc([N+](=O)[O-])cc1)NC(=O)c1cccc2ccccc12 [ONC0002591, sb328437] | 66.06 |
| NC(=O)NCCN1CCN(c2cccc(C(F)(F)F)c2)CC1 [ONC0002320, fluprazine] | 77.42 |
| CC(C)OC(=O)N[C@H]1Cc2c(n(Cc3ccccn3)c3ccc(C#N)cc23)C1 [ONC0005299, ly2452473] | 119.8 |
| Cc1cccc(C)c1NC(=O)C(C)N (stereo not shown) [ONC0002925, tocainide] | 77.81 |
| C=CCc1cccc(/C=N/NC(=O)CN2CCN(Cc3ccccc3)CC2)c1O [ONC0001284, pac1] | 110.2 |
| CC(C(=O)O)c1ccc2c(c1)[nH]c1ccc(Cl)cc12 (stereo not shown) [ONC0000615, carprofen] | 71.55 |
| NC(=O)c1ccc(F)c2c1C[C@@H](N(C1CCC1)C1CCC1)CO2 [ONC0001469, robalzotan] | 64.45 |
| CCCCc1cc2ccccc2c(OCCN(C)C)n1 [ONC0002954, dimethisoquin] | 80.7 |
| Cc1cccc(C)c1NC(=O)c1ccc(N)cc1 [ONC0003186, ameltolide] | 85.86 |
| O=P(O)(O)CP(=O)(O)O [ONC0005455, medronicacid] | 91.06 |
| Cc1c(C)c(NCC(=O)N(C)C2CCN(Cc3ccc(C(N)=O)cc3)CC2)c(C)c(C)c1N [ONC0000175, sun11602] | 109.9 |
| CN(C)CCN1C(=O)c2cccc3cc(NC(N)=O)cc(c23)C1=O [ONC0001401, unbs5162] | 84.35 |
| Cn1cnc2[nH]c(=O)[nH]c(=O)c21 [ONC0005505, 7methylxanthine] | 146 |
| CC(C(=O)O)c1ccc(-c2ccccc2)c(F)c1 (stereo not shown) [ONC0002806, flurbiprofen] | 86.3 |
| COc1cc(N)c(Cl)cc1C(=O)OCCCN1CCCCC1 [ONC0000311, rs23597190] | 64.28 |
| OC(c1ccc(-c2ccc(CN3CCN(Cc4ccncc4)CC3)cc2)c(F)c1)(C(F)(F)F)C(F)(F)F [ONC0000776, sr2211] | 88.36 |
| NC(=O)c1cn(Cc2c(F)cccc2F)nn1 [ONC0004791, rufinamide banzel] | 112.7 |
| Cc1cc(O)c2c(c1)C(=O)c1cccc(O)c1C2=O [ONC0005265, chrysophanic acid chrysophanol] | 118.5 |
| COc1cc2c(N3CCN(C(=O)Nc4ccc(OC(C)C)cc4)CC3)ncnc2cc1OCCCN1CCCCC1 [ONC0004364, tandutinib mln518] | 94.86 |
